{"source": "patent US20260242495A1", "about": "(PROMETHEUS BIOSCIENCES, published 2026)", "biological_target": "T1, DR3 receptor on human TF-1 cells (human) (UniProt Q93038)", "T1 sequence (looked up)": "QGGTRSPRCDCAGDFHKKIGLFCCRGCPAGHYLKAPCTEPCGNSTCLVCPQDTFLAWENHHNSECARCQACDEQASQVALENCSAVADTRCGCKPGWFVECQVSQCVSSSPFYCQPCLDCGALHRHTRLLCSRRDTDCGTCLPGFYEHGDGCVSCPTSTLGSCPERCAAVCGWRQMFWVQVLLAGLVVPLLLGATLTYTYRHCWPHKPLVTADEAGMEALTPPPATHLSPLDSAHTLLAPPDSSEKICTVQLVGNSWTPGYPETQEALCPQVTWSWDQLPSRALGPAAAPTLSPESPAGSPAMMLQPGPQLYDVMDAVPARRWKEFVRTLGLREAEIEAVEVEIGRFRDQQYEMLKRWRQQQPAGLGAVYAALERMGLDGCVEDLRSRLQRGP", "test": "TF-1 cell caspase activation assay", "note": "No constants are given. Whether binding was seen depends on the method and setting. Some results given as binding are weak or reduced against the parent protein; the word gives no strength."}
{"binder": "human TL1A (recombinant, soluble) (ligand, UniProt O95150 72-251, looked up) LKGQEFAPSHQQVYAPLRADGDKPRAHLTVVRQTPTQHFKNQFPALHWEHELGLAFTKNRMNYTNKFLLIPESGDYFIYSQVTFRGMTSECSEIRQAGRPNKPDSITVVITKVTDSYPEPTQLLMGTKSVCEVGSNWFQPIYLGAMFSLQEGDKLMVNVSDISLVDYTKEDKTFFGAFLL", "values": [{"measurement": "binding", "value": "binds"}]}
